Test results from PubChem BioAssay AID1347422 (Sanford-Burnham Center for Chemical Genomics, 2020).
Over roughly 1,000 compounds, “thermal shift dTm” has its median near 0.19; the highest 2% begin near 1.7. The list shows a part of the results. Activity calls are given as the source filed them.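 How the source made its calls: active means mean rise in melting temperature of at least 1 degC over same-plate control wells; inactive means below that, where a call was filed.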

Chains of the proteins cited; added tags and fusions are not shown. Lines headed by an entry give the natural chain unless they say otherwise; changes in a name come on top.
UniProt O00391: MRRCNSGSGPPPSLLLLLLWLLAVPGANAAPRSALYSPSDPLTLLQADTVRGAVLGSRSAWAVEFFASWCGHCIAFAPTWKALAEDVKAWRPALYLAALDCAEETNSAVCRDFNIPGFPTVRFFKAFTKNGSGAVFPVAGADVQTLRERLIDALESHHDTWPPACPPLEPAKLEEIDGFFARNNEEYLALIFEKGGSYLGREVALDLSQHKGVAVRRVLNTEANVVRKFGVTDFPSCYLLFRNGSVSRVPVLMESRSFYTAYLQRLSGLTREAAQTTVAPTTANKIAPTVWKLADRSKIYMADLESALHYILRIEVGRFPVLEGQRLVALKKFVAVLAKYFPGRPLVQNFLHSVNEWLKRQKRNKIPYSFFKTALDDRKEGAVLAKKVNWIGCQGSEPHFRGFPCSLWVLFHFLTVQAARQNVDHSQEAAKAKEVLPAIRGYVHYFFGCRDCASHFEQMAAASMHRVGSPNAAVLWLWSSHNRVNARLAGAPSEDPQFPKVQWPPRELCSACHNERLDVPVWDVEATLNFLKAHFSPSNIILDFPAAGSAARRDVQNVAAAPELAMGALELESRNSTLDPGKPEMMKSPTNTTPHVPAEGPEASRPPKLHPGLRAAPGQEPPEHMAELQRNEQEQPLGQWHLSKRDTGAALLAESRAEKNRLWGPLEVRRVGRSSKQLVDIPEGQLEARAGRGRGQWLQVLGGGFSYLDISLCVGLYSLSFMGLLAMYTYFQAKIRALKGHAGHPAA

What follows are compounds tested against Sulfhydryl oxidase 1 (Homo sapiens) (UniProt O00391) (assay: ligand-induced melting shift of human QSOX1 – biophysical, protein thermal shift, single concentration, QSOX1 inhibitor project, confirmation (AID 1347422;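 further: dTm is compound Tm minus mean Tm of DMSO-only wells on that plate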)). Details: recombinant hQSOX1 thermal shift, Sypro Orange, at 25 µM, stronger effect = higher value.

Row | Compound | thermal shift dTm
1 | CC(C)c1ccc(/C=C/C(=O)Nc2ccc(C(C)C)cc2)cc1 | inactive: -0.09 °C
2 | COc1cc(CNc2ccccc2Cl)cc(I)c1O | inactive: -0.09 °C
3 | CCCCOc1ccc(-c2[nH]ncc2Oc2ccccc2)c(O)c1 | 0.16 °C
4 | COc1ccc(C2=N[N+](c3nc(-c4ccc(S(=O)(=O)N5CCCCC5)cc4)cs3)=C(c3ccc(OC)cc3)C2)cc1 | 0.19 °C
5 | Cc1cc(C)cc(OCCNC(=O)c2ccc(Cl)c(Cl)c2)c1 | 0.05 °C
6 | O=C(Nc1cccc(-c2ccco2)c1)C1CCN(C(=O)c2ccoc2)CC1 | active: 1.03 °C
7 | NC(=O)c1ccc(NC(=O)c2cccc(C(F)(F)F)c2)cc1 | 0.7 °C
8 | CC1=Nc2ccccc2/C1=C/c1c(O)n(Cc2ccco2)c(=O)[nH]c1=O | 0.93 °C
9 | O=C(NC(=S)Nc1cccc(Cl)c1N1CCOCC1)c1cccs1 | inactive: -0.04 °C
10 | Oc1ccccc1C=Nc1ccc(Cc2ccc(N=Cc3ccccc3O)c(O)c2)cc1O | 0.01 °C
11 | CNS(=O)(=O)c1ccc(NC(=O)c2csc(C)c2C)cc1 | inactive: -0.05 °C
12 | CCOc1ccc(Br)cc1-c1nc2ccccc2c(=O)o1 | 0.43 °C
13 | Cc1c(CC2C(=O)Nc3ccccc32)oc2ccc(F)cc12 (centres undefined) | 0.32 °C
14 | O=C(Nc1cccc(-c2ccn[nH]2)c1)c1ccc(C2CCCN2)s1 (centres undefined) | 0.14 °C
15 | Cc1ccccc1-c1nnc(NC(=O)NC(C)c2nc3ccccc3[nH]2)s1 (centres undefined) | 0.51 °C
16 | CCS(=O)(=O)Nc1ccc(C(=O)Nc2cccc(F)c2)cc1 | 0.38 °C
17 | CN1Cc2ccccc2CC1CNC(=O)c1cn(Cc2ccccc2F)nn1 (centres undefined) | 0.14 °C
18 | Cc1cc(C)cc(NC(=O)C(C)N2C(=O)c3cccc4cccc2c34)c1 (centres undefined) | 0.11 °C
19 | COc1ccc(Br)cc1S(=O)(=O)Nc1cccc(O)c1 | 0.09 °C
20 | Oc1ccc(-c2[nH]ncc2Oc2ccc(-c3ccccc3)cc2)c(O)c1 | inactive: -0.17 °C
21 | CCCOc1ccc(Nc2ncnc3ccc(Br)cc23)cc1 | 0.11 °C
22 | Nc1cccc(/C=C/C(=O)c2cccc(N)c2)c1 | inactive: -0.03 °C
23 | CCc1cc(-c2n[nH]c(C)c2Oc2ccc(F)cc2)c(O)cc1OC | 0.02 °C

Row | Compound | thermal shift dTm
24 | CN(CCC1CCCCO1)Cc1nc(-c2ccc3c(c2)OCO3)no1 (centres undefined) | 0.28 °C
25 | O=[N+]([O-])C1=C(Nc2ccc(Cl)c(Cl)c2)CS(=O)(=O)C1 | 0.01 °C
26 | O=C(c1ccc(F)cc1)c1ccc(-c2[nH]c(-c3ccc(Cl)cc3Cl)nc2-c2ccccc2)cc1 | inactive: -0.04 °C
27 | Cc1cccc(NC(=O)NCCc2ccc(O)cc2)c1 | 0.13 °C
28 | Cc1ccc2sc(-c3ccc(NC(=O)CCc4ccccc4)cc3)nc2c1 | 0.4 °C
29 | Clc1cccc(OCCCCOc2cccc3cccnc23)c1 | inactive: -0.04 °C
30 | Cc1cc(=O)[nH]c(SCc2ccc(C(=O)Nc3nccs3)cc2)n1 | 0.32 °C
31 | CCOc1ccc(NC(=O)c2ccc(-c3csc(C)n3)cc2)cc1 | 0.15 °C
32 | Cc1cc(Cl)c(Cl)cc1S(=O)(=O)Nc1ccc2cn[nH]c2c1 | active: 1.02 °C
33 | Cc1cccc(N)c1NC(=O)c1ccc(OC(F)(F)F)cc1 | 0.2 °C
34 | CC(=O)c1sc(Nc2ccc(Oc3ccccc3)cc2)nc1C | 0.15 °C
35 | CN1CCN(c2ccc(NC(=O)c3ccc4c(c3)OCCO4)cc2Cl)CC1 | 0 °C
36 | CCN(CC)c1ccc(NC2=NC(c3ccncc3)=[C+]S2)cc1 | inactive: -0.04 °C
37 | COc1ccc(Nc2nc(-c3ccncc3)cs2)cc1 | inactive: -0.08 °C
38 | Cc1ccccc1CNC(=O)/C=C/c1ccc(C(C)(C)C)cc1 | 0.11 °C
39 | CC(=O)Nc1cccc(NC(=O)c2ccc(C)s2)c1 | 0.23 °C
40 | NC(=O)c1ccc(NC(=O)Nc2cc(Cl)ccc2Cl)cc1 | 0.19 °C
41 | Cc1nc(-c2cccc(NC(=O)c3cccs3)c2)cs1 | active: 1.55 °C
42 | Brc1ccc(-c2nc(-c3ccccc3)c(-c3ccc(Br)cc3)[nH]2)cc1 | inactive: -0.09 °C
43 | O=C(NCCc1cccs1)Nc1ccccc1 | 0.28 °C
44 | CC(C)CNC(=S)Nc1ccc(Oc2ccccc2)cc1 | 0.35 °C
45 | CCOc1cc(-c2nc3ccccc3s2)cc(Br)c1OC | 0.4 °C
46 | Cn1nccc1-c1nc(-c2cccc3[nH]ccc23)no1 | 0.23 °C

Gathered by group, the entries above with bromine
Row | Compound | thermal shift dTm
12 | CCOc1ccc(Br)cc1-c1nc2ccccc2c(=O)o1 | 0.43 °C
19 | COc1ccc(Br)cc1S(=O)(=O)Nc1cccc(O)c1 | 0.09 °C
21 | CCCOc1ccc(Nc2ncnc3ccc(Br)cc23)cc1 | 0.11 °C
42 | Brc1ccc(-c2nc(-c3ccccc3)c(-c3ccc(Br)cc3)[nH]2)cc1 | inactive: -0.09 °C
45 | CCOc1cc(-c2nc3ccccc3s2)cc(Br)c1OC | 0.4 °C

Further compounds follow.

Row | Compound | thermal shift dTm
47 | NC1=NC(=O)/C(=C\c2ccc(-c3ccc(Cl)c(C(=O)O)c3)o2)S1 | active: 1.17 °C
48 | O=C(Nc1ccc(N2CCOCC2)cc1)Nc1ccc2snnc2c1 | inactive: -7.53 °C
49 | COc1ccc(C(=O)c2sc3nc(-c4ccco4)cc(C(F)(F)F)c3c2N)cc1OC | 0.72 °C
50 | CC(C)=CC(=O)Nc1ccc(I)cc1 | 0.21 °C
51 | COc1ccc(NC(=O)c2ccc(Cl)s2)cc1OC | 0.19 °C
52 | CCCc1ccc(C(=O)Nc2ccc3c(c2)OCCO3)cc1 | 0.09 °C
53 | Clc1ccc(CNc2nc3nonc3nc2N2CCOCC2)s1 | 0.57 °C
54 | CCc1sc(NS(=O)(=O)c2ccccc2)nc1-c1ccccc1 | 0.48 °C
55 | CCOc1cc(C(=S)N2CCOCC2)ccc1OCc1ccc(Br)cc1 | inactive: -0.03 °C
56 | Cc1cccc(C(=O)Nc2cccc(-c3csc(C)n3)c2)c1 | active: 1.13 °C
57 | COc1ccccc1NC(=O)c1ccccc1-c1nc(-c2ccccc2F)no1 | inactive: -0.09 °C
58 | CCC(=O)NC(N(Cc1ccccc1)Cc1ccccc1)C(Cl)(Cl)Cl (centres undefined) | 0.19 °C
59 | O=C(Nc1ccc(Br)cc1)N1CCN(c2ccccc2)CC1 | inactive: -12.2 °C
60 | CCC(C)c1ccc(NC(=O)NCc2cccs2)cc1 (centres undefined) | 0.47 °C
61 | C/C(=N\Nc1cc(C)nc(-c2ccccc2O)n1)c1ccccc1 | inactive: -0.04 °C
62 | Cc1ccc(NC(=O)NCCN2CCN(c3ccccc3)CC2)cc1F | 0.23 °C
63 | CCC(C)c1ccc(NC(=S)Nc2ccc(OCc3ccccc3)cc2)cc1 (centres undefined) | 0.63 °C
64 | CC(=O)N1CCN(c2ccc(NC(=O)/C=C/c3ccccc3)cc2)CC1 | 0.81 °C
65 | O=C(Nc1ccc2c(c1)OCCO2)c1cccc(NC(=O)c2cccs2)c1 | 0.83 °C
66 | Cc1cc2ncn(CCCOc3ccc(Cl)cc3)c2cc1C | 0.11 °C
67 | Cc1ccc(NS(=O)(=O)c2cc(C(=O)Nc3ccc4c(c3)OCO4)ccc2C)c(C)c1 | 0.61 °C
68 | CCc1nn2c(N)c(C#N)nnc2c1-c1ccc(Cl)cc1 | 0.47 °C
69 | COc1ccc(/C=C/c2ccc3cccc(O)c3n2)cc1O | inactive: -22.2 °C
